Assay in all cases: filter binding
Series [1] concerns the target T1, MCM Q176A (Methanothermobacter thermautotrophicus) (UniProt O27798).
T1 sequence (looked up): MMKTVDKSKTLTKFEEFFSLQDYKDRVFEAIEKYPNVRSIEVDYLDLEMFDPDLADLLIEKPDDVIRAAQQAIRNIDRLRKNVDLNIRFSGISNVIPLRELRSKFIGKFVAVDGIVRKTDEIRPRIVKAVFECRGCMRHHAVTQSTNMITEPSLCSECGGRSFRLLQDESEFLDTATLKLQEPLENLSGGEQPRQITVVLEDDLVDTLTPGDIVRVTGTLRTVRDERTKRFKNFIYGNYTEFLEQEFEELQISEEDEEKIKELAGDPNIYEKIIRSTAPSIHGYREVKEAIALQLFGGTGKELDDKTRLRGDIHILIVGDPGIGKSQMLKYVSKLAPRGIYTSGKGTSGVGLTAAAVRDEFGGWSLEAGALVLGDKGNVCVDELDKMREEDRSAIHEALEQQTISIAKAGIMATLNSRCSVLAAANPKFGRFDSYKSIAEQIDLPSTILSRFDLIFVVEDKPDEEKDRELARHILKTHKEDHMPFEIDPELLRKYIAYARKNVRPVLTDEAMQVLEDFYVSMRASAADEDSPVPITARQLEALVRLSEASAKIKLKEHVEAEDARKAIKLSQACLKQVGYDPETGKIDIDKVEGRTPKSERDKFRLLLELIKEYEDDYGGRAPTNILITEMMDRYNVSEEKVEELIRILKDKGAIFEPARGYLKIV
As to conditions: 10 mM Mg2+, 25 mM Hepes-NaOH pH 7.5, 2 mM DTT, 10 mM MgCl2, 100 ug/ml BSA, 50 fmol 32P-DNA in 20 ul, 10/30/90 nM MCM monomer (25 nM for the ATP test), 60 C, 10 min, recombinant protein, residues 1-666, protein details: C-terminal His6, label: 32P (T4 PNK, 5' end), single-stranded DNA.

Series [2] addresses T2, MCM PG210,211GA P210G,G211A (Methanothermobacter thermautotrophicus) (UniProt O27798).
T2 sequence (looked up): T1 sequence (looked up) with A176Q, P210G, G211A
The settings on record: 1 mM ATP, 10 mM Mg2+; 25 mM Hepes-NaOH pH 7.5, 2 mM DTT, 10 mM MgCl2, 100 ug/ml BSA, 50 fmol 32P-DNA in 20 ul, 10/30/90 nM MCM monomer (25 nM for the ATP test), 60 C, 10 min; recombinant protein; residues 1-666; protein details: C-terminal His6; label: 32P (T4 PNK, 5' end); single-stranded DNA.

Series [3] addresses T3, MCM wild-type (Methanothermobacter thermautotrophicus) (UniProt O27798).
T3 sequence (looked up): T1 sequence (looked up) with A176Q
As to conditions: 10 mM Mg2+, 25 mM Hepes-NaOH pH 7.5, 2 mM DTT, 10 mM MgCl2, 100 ug/ml BSA, 50 fmol 32P-DNA in 20 ul, 10/30/90 nM MCM monomer (25 nM for the ATP test), 60 C, 10 min, recombinant protein, residues 1-666, protein details: C-terminal His6, label: 32P (T4 PNK, 5' end), single-stranded DNA.

Series [4] has as its target T4, MCM G218A (Methanothermobacter thermautotrophicus) (UniProt O27798).
T4 sequence (looked up): T1 sequence (looked up) with A176Q, G218A
The settings on record: 1 mM ATP, 10 mM Mg2+; 25 mM Hepes-NaOH pH 7.5, 2 mM DTT, 10 mM MgCl2, 100 ug/ml BSA, 50 fmol 32P-DNA in 20 ul, 10/30/90 nM MCM monomer (25 nM for the ATP test), 60 C, 10 min; recombinant protein; residues 1-666; protein details: C-terminal His6; label: 32P (T4 PNK, 5' end); single-stranded DNA.

Residue numbers refer to the chain shown, from its start. For at least one entry, the source does not settle the construct or the ends of the probe. For part of these data: The comparison behind a weaker result is the experiment's own reference, which may not be listed here. Where a protein sequence is shown, tags need not be part of it. At least one verdict rests on a figure or table, not on a statement of the authors.

For the sequence “GCAGATAACAGTTGTCCTGGAGAACGACCTGGTTGACACCCTCACACCC [49-mer ssDNA]”, the binding result in series [1] (1 mM ATP) is “binds”; in series [1] (no ATP), “binds more weakly”; in series [2], “binds”; in series [3] (1 mM ATP), “binds”; in series [3] (no ATP), “binds”; in series [4], “binds”.
